For 1 molecule, binding results are on record in patent US20220364110A1.

Protein sequences, listed by entry. Tags and fused reporters are not part of them. Residues count along the entry.
UniProt P06127, residues 25-372: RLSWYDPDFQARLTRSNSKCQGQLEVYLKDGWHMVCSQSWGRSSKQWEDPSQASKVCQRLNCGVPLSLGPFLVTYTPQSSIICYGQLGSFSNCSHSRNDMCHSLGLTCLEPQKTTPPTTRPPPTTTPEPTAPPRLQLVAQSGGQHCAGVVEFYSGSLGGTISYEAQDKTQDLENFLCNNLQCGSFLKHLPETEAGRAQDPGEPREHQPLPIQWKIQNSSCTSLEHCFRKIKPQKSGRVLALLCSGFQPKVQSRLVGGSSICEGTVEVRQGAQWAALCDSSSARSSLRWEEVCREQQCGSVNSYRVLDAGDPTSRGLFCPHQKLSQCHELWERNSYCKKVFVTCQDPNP

These are yes or no findings as the source states them, for the method shown. Some results given as binding are weak or reduced against the parent protein; the word gives no strength.

In test [1] the target is Alexa647-conjugated CD5 protein (UniProt P06127). The experiment in a line: flow cytometry, Alexa647-conjugated CD5 protein on transfected HEK293 cells. A general note: Flow cytometry measures light scatter and fluorescence of single cells or particles in a stream.
Test [2] has the same target. The experiment in a line: flow cytometry, labelled CD5 on transfected HEK293T cells.

B1: CD5-FcR-PI3K chimeric receptor (ATAK receptor; CD5 binder chimeric antigen receptor) expressed from the LINE-1 plasmid CD5-intron-FCR-PI3K cargo (receptor)
chain: EIQLVQSGGGLVKPGGSVRISCAASGYTFTNYGMNWVRQAPGKGLEWMGWINTHTGEPTYADSFKGRFTFSLDDSKNTAYLQINSLRAEDTAVYFCTRRGYDWYFDVWGQGTTVTVSSGGGGSGGGGSGGGGSDIQMTQSPSSLSASVGDRVTITCRASQDINSYLSWFQQKPGKAPKTLIYRANRLESGVPSRFSGSGSGTDYTLTISSLQYEDFGIYYCQQYDESPWTFGGGTKLEIKSGGGGSGALSNSIMYFSHFVPVFLPAKPTTTPAPRPPTPAPTIASQPLSLRPEACRPAAGGAVHTRGLDIYIWAPLAGTCGVLLLSLVITLYCRRLKIQVRKAAITSYEKSDGVYTGLSTRNQETYETLKHEKPPQGSGSYEDMRGILYAAPQLRSIRGQPGPNHEEDADSYENM
Consider B1, for which the binding result in test [1] and in test [2] was “binds” throughout.
